# From publication PMC7862700
# The chains behind the UniProt entries cited, without tags or fusion partners. Where a name states a change or a piece, a line headed by the entry shows the natural chain unless it says otherwise.
# UniProt O43186: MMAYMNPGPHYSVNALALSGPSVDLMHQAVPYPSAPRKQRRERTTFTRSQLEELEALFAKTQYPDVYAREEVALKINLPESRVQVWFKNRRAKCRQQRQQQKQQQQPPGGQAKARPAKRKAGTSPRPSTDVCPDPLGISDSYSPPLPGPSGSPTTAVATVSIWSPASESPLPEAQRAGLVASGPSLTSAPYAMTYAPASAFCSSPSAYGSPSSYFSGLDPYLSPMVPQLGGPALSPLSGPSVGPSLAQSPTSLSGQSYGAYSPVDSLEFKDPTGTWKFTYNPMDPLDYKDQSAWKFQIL
# The entries are a selection whose mix differs from that of the whole data set. At the low end of the ranking the order means little.
# Legend:
# Experiment in all cases: DAPPL (digital affinity profiling via proximity ligation, sequencing)
# Settings in all cases: 10 mM Tris-HCl pH 7.5, 50 mM NaCl, 1 mM DTT, 4% glycerol, room temperature, 30 min; GST-TFs on glutathione beads, 16-mer random dsDNA library, 0.1% …; high values mean tight binding; double strand, one strand shown; scale: fold enrichment (6-mer frequency, TF over GST control)
# FEV = target: T1, FEV (UniProt Q99581)
# T1 sequence: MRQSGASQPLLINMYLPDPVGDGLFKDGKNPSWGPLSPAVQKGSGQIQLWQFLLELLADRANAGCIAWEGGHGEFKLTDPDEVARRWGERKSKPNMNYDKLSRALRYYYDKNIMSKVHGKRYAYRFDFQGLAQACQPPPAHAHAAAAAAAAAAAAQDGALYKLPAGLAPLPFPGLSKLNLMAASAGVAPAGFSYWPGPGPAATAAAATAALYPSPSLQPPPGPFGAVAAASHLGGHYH
# CRX = CRX (UniProt O43186)
# ELF5 = target: T2, ELF5 (UniProt Q9UKW6-2)
# T2 sequence: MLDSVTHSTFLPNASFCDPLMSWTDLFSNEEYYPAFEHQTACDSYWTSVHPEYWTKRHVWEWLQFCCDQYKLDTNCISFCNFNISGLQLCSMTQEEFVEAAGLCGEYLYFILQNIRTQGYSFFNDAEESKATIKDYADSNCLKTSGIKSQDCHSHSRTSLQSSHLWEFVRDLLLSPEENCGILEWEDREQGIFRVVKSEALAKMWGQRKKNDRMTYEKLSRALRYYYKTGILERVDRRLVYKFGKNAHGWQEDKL
Sequence,binding signal (FEV),binding signal (CRX),binding signal (ELF5)
GGAGTT,0.399,0.384,0.422
CGGTAG,0.732,0.466,0.736
TGCAGT,0.782,0.665,0.78
GGCAGA,0.643,0.558,0.625
CAGGCC,0.725,0.594,0.662
GGGGCC,0.563,0.394,0.522
AGTCTA,0.676,0.79,0.731
GTCTGT,0.836,0.643,0.853
TCGCCA,0.907,0.857,0.946
GTAGTA,0.895,0.766,0.997
CGGGAT,0.587,0.788,0.746
CCCAGG,0.75,0.626,0.72
GATCCG,0.955,0.956,1.02
GAACAG,0.864,0.745,0.986
CGGTGC,0.741,0.507,0.656
GGAGCC,0.336,0.268,0.309
GGGAGC,0.401,0.331,0.363
CACAGA,0.861,0.81,0.752
GACCCT,0.881,0.778,0.855
AACGGG,0.716,0.604,0.729
TCAGTC,0.607,0.583,0.583

Sequence,binding signal (FEV),binding signal (CRX),binding signal (ELF5)
GGGGTA,0.717,0.646,0.725
GAGGCG,0.347,0.299,0.344
AGACAT,0.806,0.707,0.877
GCAGGA,0.832,0.601,0.885
AGACAG,0.494,0.411,0.52
AGGTCA,0.693,0.563,0.687
GGAATC,0.721,0.755,0.682
CCAGTG,0.472,0.365,0.431
TGAGGC,0.448,0.429,0.415
GAGGTT,0.654,0.748,0.761
CACGTC,0.87,0.628,0.84
GGCCAT,0.845,0.7,0.793
CCGGGC,0.815,0.566,0.885
TCAGGA,0.791,0.749,0.931
GAGCAA,0.744,0.642,0.697
GCATTG,0.784,0.657,0.769
CAGTTG,0.463,0.384,0.426
GCCAGT,0.305,0.25,0.281
GTCGAT,0.63,0.628,0.655
AAGGAG,0.324,0.325,0.345
CGCAGA,0.793,0.737,0.714

Sequence,binding signal (FEV),binding signal (CRX),binding signal (ELF5)
TGACAG,0.903,0.79,0.893
GAGGTG,0.423,0.377,0.438
TTGTGA,0.774,0.822,0.727
CAAGGC,0.91,0.75,0.819
GGAACC,0.836,0.456,0.849
GCAGAG,0.658,0.561,0.623
CCCAGT,0.654,0.517,0.582
AGGACG,0.515,0.353,0.51
CAGGTG,0.571,0.48,0.544
TCGTGG,0.717,0.691,0.733
GTCGCA,0.768,0.519,0.721
GCCGTA,0.827,0.785,0.786
CCAGAC,0.671,0.619,0.672
GTGACG,0.71,0.532,0.696
GTCAAC,0.864,0.608,0.848
CAGTTA,0.776,0.732,0.717
CGGACT,0.917,0.694,0.836
ACCAGT,0.46,0.408,0.44
GCATCG,0.78,0.659,0.726
GCGCAA,0.854,0.688,0.77
CGGGGA,0.394,0.418,0.437

# Copied from the list.
# GAGGTT – binding signal (ELF5): 0.761
# GGAATC – binding signal (FEV): 0.721
# TGAGGC – binding signal (ELF5): 0.415
# TCAGGA – binding signal (ELF5): 0.931
# GAGGCG – binding signal (CRX): 0.299

# (continued)

Sequence,binding signal (FEV),binding signal (CRX),binding signal (ELF5)
GCCCGT,0.619,0.488,0.597
GCATGG,0.811,0.716,0.786
GGTTGG,0.689,0.511,0.759
GGCGTA,0.615,0.592,0.635
TCAGGG,0.793,0.892,0.839
AGTCTG,0.563,0.551,0.592
AGAGGC,0.666,0.67,0.661
ACCGAG,0.78,0.703,0.745
GCGGTG,0.536,0.388,0.526
ACGGGC,0.826,0.645,0.758
GACAAG,0.81,0.642,0.751
GGCTGG,0.729,0.626,0.752
CCCAGC,0.863,0.829,0.863
AACCGT,0.518,0.48,0.481
GGTGAG,0.347,0.284,0.317
CCAAGG,0.849,0.792,0.889
CAGCGT,0.805,0.69,0.79
GAGCGA,0.645,0.548,0.585
ACCATG,0.827,0.652,0.801
GGTAGC,0.795,0.582,0.834
AGCCGC,0.873,0.974,0.813
